Literature values as cited in US6413909B1, “Herbicide composition for control of rye grass and vetch in preplant burndown” (priority 2001, dated 2002).
At least one structure is not confirmed: it was looked up by name or label, or the drawing left a doubt. Some entries share one result that the patent states for a list of compounds.

Experiments:
[1] = tested on: vetch; details: herbicide alone; cited from earlier work
[2] = tested on: rye grass; details: herbicide alone; paraquat at 0.5 to 1.0 lbs. active ingredient per acre; cited from earlier work

C[n+]1ccc(-c2cc[n+](C)cc2)cc1 [paraquat, 1,1-dimethyl-4,4-bipyridinium]
effective against vetch [1]: 65-75% | effective against rye grass [2]: 75-80%
